# Assay results reported in article PMC4022105.
# By UniProt entry, the sequences of proteins in these tests, tags left out.
# UniProt P60953: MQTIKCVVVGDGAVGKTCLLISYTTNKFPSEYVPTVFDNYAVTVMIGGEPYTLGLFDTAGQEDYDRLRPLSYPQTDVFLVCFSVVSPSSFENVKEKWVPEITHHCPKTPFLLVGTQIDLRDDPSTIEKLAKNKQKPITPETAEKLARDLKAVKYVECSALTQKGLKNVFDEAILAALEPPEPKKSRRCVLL
# UniProt P61586: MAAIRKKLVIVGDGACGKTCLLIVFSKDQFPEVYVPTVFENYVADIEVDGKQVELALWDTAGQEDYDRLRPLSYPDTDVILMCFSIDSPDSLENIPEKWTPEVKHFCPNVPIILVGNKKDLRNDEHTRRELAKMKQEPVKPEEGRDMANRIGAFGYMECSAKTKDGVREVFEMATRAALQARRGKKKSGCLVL
# Results are given in words; binding and its absence hold for the method and conditions named. In cells and extracts the contact can be indirect. Some binding calls cover weakened binding; strength is not graded here.
# B1: human Dsg3 overexpressed in A431 cells (A431-D3) (protein, UniProt P32926 50-999)
# chain: EWVKFAKPCREGEDNSKRNPIAKITSDYQATQKITYRISGVGIDQPPFGIFVVDKNTGDINITAIVDREETPSFLITCRALNAQGLDVEKPLILTVKILDINDNPPVFSQQIFMGEIEENSASNSLVMILNATDADEPNHLNSKIAFKIVSQEPAGTPMFLLSRNTGEVRTLTNSLDREQASSYRLVVSGADKDGEGLSTQCECNIKVKDVNDNFPMFRDSQYSARIEENILSSELLRFQVTDLDEEYTDNWLAVYFFTSGNEGNWFEIQTDPRTNEGILKVVKALDYEQLQSVKLSIAVKNKAEFHQSVISRYRVQSTPVTIQVINVREGIAFRPASKTFTVQKGISSKKLVDYILGTYQAIDEDTNKAASNVKYVMGRNDGGYLMIDSKTAEIKFVKNMNRDSTFIVNKTITAEVLAIDEYTGKTSTGTVYVRVPDFNDNCPTAVLEKDAVCSSSPSVVVSARTLNNRYTGPYTFALEDQPVKLPAVWSITTLNATSALLRAQEQIPPGVYHISLVLTDSQNNRCEMPRSLTLEVCQCDNRGICGTSYPTTSPGTRYGRPHSGRLGPAAIGLLLLGLLLLLLAPLLLLTCDCGAGSTGGVTGGFIPVPDGSEGTIHQWGIEGAHPEDKEITNICVPPVTANGADFMESSEVCTNTYARGTAVEGTSGMEMTTKLGAATESGGAAGFATGTVSGAASGFGAATGVGICSSGQSGTMRTRHSTGGTNKDYADGAISMNFLDSYFSQKAFACAEEDDGQEANDCLLIYDNEGADATGSPVGSVGCCSFIADDLDDSFLDSLGPKFKKLAEISLGVDGEGKEVQPPSKDSGYGIESCGHPIEVQQTGFVKCQTLSGSQGASALSTSGSVQPAVSIPDPLQHGNYLVTETYSASGSLVQPSTAGFDPLLTQNVIVTERVICPISSVPGNLAGPTQLRGSHTMLCTEDPCSRLI
# Legend:
# [1] = target: GTP-bound Cdc42, endogenous (human (endogenous in A431)) (UniProt P60953); test: pull-down; glutathione beads with GST-PAK-1 PBD used to pull down GTP-bound Rac1/Cdc42 from lysates of A431-V and -D3 cells; pull-downs re-blotted with Dsg3 antibodies
# [2] = target: GTP-bound RhoA, endogenous (human (endogenous in A431)) (UniProt P61586); test: pull-down; glutathione beads with GST-Rhotekin-PBD used to pull down GTP-bound RhoA from lysates of A431-V and -D3 cells; pull-downs re-blotted with Dsg3 antibodies
binder,measurement,setting,value
B1,binding,[1],binds
same,binding,[2],binds
